Measurements: patent US7686852B2, “Monoazo dyes” (Clariant Finance (BVI) Limited, priority 2004, dated 2010)

Assays:
[1] = Perspiration fastness ISO105-E04, staining of adjacent fabric; conditions: Nylsuisse-Tricot dyed per Use Example A to 3×1/1 Standard Depth=1.80%; alkaline perspiration pH 8; Grey Scale staining ISO 105-A03, ratings 5 to 1
Procedure: (§1) A Nylsuisse-Tricot was dyed according to Use Example A (see below) to 3×1/1 Standard Depth=1.80% and the following tests have been performed:
The test specimen and adjacent fabrics were thoroughly wet out in an alkaline perspiration solution containing:
0.5 g 1-histidine monohydrochloride monohydrate
(§2) 2.5 g disodium hydrogen phosphate dihydrate (adjust to pH 8 with 1 n caustic soda) per litre at room temperature and liquor ratio 50:1 and left for 30 min, the excess solution was poured off, the test specimen were placed between 2 glass plates under a pressure of 12.5 kPa (5 kg/40 cm2) and placed in a drying oven for 4 h at 37° C. Without rinsing, the samples were hung to dry in warm air at max. 60° C. Domestic Laundering ISO 105-C06/B2S, 50° C. and Domestic Laundering ISO 105-C06/B2S, 60° C.:
(§3) Evaluation According to Grey Scale Staining ISO 105-A03
(§4) For the evaluation a 5-step Grey Scale was used consisting of 5 pairs of swatches of grey and white cloth which illustrate the perceived colour differences corresponding to fastness ratings 5, 4, 3, 2 and 1. The fastness assessment or rating corresponds to that number of the Grey Scale which is closest to the perceived colour distance between the original adjacent fabric and the treated adjacent fabric. (midway between two adjacent steps=intermediate rating e.g. 2-3)

[2] = Domestic laundering fastness ISO 105-C06/B2S, staining of adjacent fabric; conditions: Nylsuisse-Tricot dyed to 3×1/1 Standard Depth=1.80%, Grey Scale staining ISO 105-A03
Procedure: as §1, §2
The test specimen is placed with adjacent undyed fabric in a steel beaker (550 ml volume) and treated with detergent solution (4 g/l ECE phosphate-containing Test Detergent B)) and 1 g/l sodium perborate tetrahydrate, 25 steel balls for 30 minutes in the Launder-Ometer (the total amount of liquor was 150 ml). The sample was rinsed and hang to dry in warm air at max. 60° C.
as §3, §4

[3] = Hot water 70° C. fastness ISO 105-E08, staining of adjacent fabric; conditions: wool gabardine dyed per Use Example C to 3×1/1 standard depth=2.25%, Grey Scale staining ISO 105-A03
Description: as §3, §4
(§5) A wool gabardine was dyed according to Use Example C (see below) to 3×1/1 standard depth=2.25% and the following tests have been performed:
the test specimen and adjacent fabrics were rolled tightly round a glass rod, a yarn was loosely wound over them and treat for 30 min at 70° C. in slightly acid water (pH 6 with acetic acid), liquor ratio 30:1. The test specimen was removed from glass rod, squeezed and was hung without rinsing to dry in warm air at max. 60° C. Assessment: Adjacent fabric: Staining according to ISO 105-A03 (see above)

[4] = Milling alkaline fastness ISO 105-E12, staining of adjacent fabric; conditions: wool gabardine dyed to 3×1/1 standard depth=2.25%, Grey Scale staining ISO 105-A03
Description: as §3, §4, §5
Milling Alkaline, ISO 105-E12
the test specimen and adjacent fabrics with 50 stainless steel balls were placed in a steel beaker (550 ml volume). Milling solution (50 g/l soap and 10 g/l anhydrous sodium carbonate) was added at a liquor ratio 3:1 and treated for 2 h at 40° C. in the Launder-Ometer. Then liquor ratio of 100:1 was adjusted with 40° C. warm demineralized water and treated for another 10 min. The test specimen were rinsed in cold demineralized water and then in cold running tapwater for 10 min, squeezed and hung to dry in warm air at max. 60° C. Assessment: Adjacent fabric: Staining according to ISO 105-A03 (see above)

| Structure (SMILES) | rating of PA 66 (mostly stained adjacent fabric), Perspiration ISO105-E04 [1] | rating of PA 66 (mostly stained adjacent fabric), Domestic laundering ISO 105-C06/B2S, 50° C. [2] | rating of PA 66 (mostly stained adjacent fabric), Domestic laundering ISO 105-C06/B2S, 60° C. [2] | rating of mostly stained adjacent fabric, Hot water 70° C., ISO 105-E08 [3] | rating of mostly stained adjacent fabric, Milling alkaline, ISO 105-E12 [4] |
| --- | --- | --- | --- | --- | --- |
| Cc1cc(OS(=O)(=O)c2ccc(C(C)(C)C)cc2)ccc1/N=N/c1ccc(Nc2ccc(S(=O)(=O)O)cc2[N+](=O)[O-])cc1 [Example 1] | 3.5 | 2.7 | 1.6 | 3.8^1) | 3.4^1) |
| Cc1ccc(S(=O)(=O)Oc2ccc(/N=N/c3ccc(Nc4ccc(S(=O)(=O)O)cc4[N+](=O)[O-])cc3)c(C)c2)cc1 [reference compound] | 2.8 | 2.0 | 1.2 | 2.6^1) | 2.2^1) |

Marks after values point to notes of the source that are not given here.
